Results taken from PubChem BioAssay AID1671190 (National Center for Advancing Translational Sciences (NCATS), 2021).
In all, about 580,000 compounds went through this assay and about 6,100 (1.1%) were called active. Inconclusive means that the source gave no clear call. Such entries were picked first, then a sample of the others. Calls follow the shape of the dose curve; as a rule, active = well fitted inhibition curve with a large enough effect; inconclusive = small, poorly fitted or top-dose-only effect, or another doubt; inactive = no such curve, though single readings can be large or run the other way. A potency beside an inconclusive call is a rough fit, not a confirmed value.
Potency is read from the fitted curve at half-maximal effect.

Amino acid sequences for entries named in this document (tags omitted).
UniProt P18054, whole entry, looked up: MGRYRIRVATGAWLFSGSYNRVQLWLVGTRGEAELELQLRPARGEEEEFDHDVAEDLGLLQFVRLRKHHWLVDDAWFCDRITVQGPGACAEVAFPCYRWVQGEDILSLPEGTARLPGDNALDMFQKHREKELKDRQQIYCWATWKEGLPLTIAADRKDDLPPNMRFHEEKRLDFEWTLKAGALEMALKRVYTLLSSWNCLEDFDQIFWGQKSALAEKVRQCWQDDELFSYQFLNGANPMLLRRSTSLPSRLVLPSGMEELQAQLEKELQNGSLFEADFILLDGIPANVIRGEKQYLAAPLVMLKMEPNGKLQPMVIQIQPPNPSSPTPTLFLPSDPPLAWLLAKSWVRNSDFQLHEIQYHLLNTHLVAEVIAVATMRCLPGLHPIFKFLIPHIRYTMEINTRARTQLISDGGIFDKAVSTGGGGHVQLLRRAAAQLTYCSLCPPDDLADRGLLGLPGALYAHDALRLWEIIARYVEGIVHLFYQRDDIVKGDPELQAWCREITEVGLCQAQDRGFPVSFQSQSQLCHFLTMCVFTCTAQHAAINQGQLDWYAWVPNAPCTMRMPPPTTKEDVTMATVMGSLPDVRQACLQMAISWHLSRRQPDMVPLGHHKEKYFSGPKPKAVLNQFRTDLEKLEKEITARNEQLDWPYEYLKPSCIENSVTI

The compounds below were run against Polyunsaturated fatty acid lipoxygenase ALOX12 (Homo sapiens) (UniProt P18054) (assay: Primary qHTS assay for inhibitors of human arachidonate 12S-lipoxygenase (ALOX12): Round 2). Conditions: purified 12hLO, xylenol orange hydroperoxide absorbance; series mostly up to 108 µM.
Method in brief: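 Hydroperoxide product was detected by ferrous iron/xylenol orange as the 573 to 405 nm absorbance ratio. Arachidonic acid at 40 uM (final) was turned over for 30 min at room temperature by 150 nM human 12hLO, pH 7.0 Hepes buffer, after 15 min compound preincubation.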
With `CC1CCC(NC(=O)c2cc(-c3ccccc3)nc3ccccc23)CC1` (configuration not stated) the Potency was active: 0.794 µM. In the case of `CSc1ccccc1C(=O)Nc1cc(Cl)cc(Cl)c1`, the Potency is reported as inconclusive: 100 µM [inhibitor, single point]. In the case of `COC(=O)C1CCCN1C(=O)c1c(C)oc2c1CN(Cc1ccc(C)cc1)CC2` (configuration not stated), the Potency is reported as inconclusive: 14.1 µM [inhibitor, full curve]. For `Cc1ccccc1C(=O)NNC(=S)NC(=O)COc1ccccc1`, the Potency was active: 3.55 µM. `O=C(Cn1nc2c(cc1=O)CCCC2)NCCc1ccco1` was tested, and the Potency was “inactive”. With `CN(Cc1nc(-c2ccncc2)no1)C(=O)C1CNCCO1` (configuration not stated) the Potency was inconclusive: 12.6 µM [inhibitor, full curve]. For `CCc1ccc(N(C(C)=O)c2nc(CCl)cs2)cc1`, the Potency was inconclusive: 44.7 µM [inhibitor, partial curve]. In the case of `C[N+]1(CC(=O)OC2CCCCCCCCCCC2)CCCC1`, the Potency is reported as active: 44.7 µM. For `O=C(C1CCCC1)N1CC2(CCCN(Cc3c[nH]c4ccccc34)C2)Cc2ccccc21` (configuration not stated), the Potency was inconclusive: 63.1 µM [inhibitor, partial curve, poor fit]. `CN1CC2(CCCN(CC3CC3)C2)c2cc(C(=O)NCCOc3ccccc3)ccc21` (configuration not stated) was tested, and the Potency was inconclusive: 12.6 µM [inhibitor, full curve]. `COc1ccccc1C(=O)Nc1ccc2c(c1)nc1n2CCN(C2CCCCC2)C1` was tested, and the Potency was “inactive”. For `CNC(=S)Nc1ccc(-c2nc3ccc(C)cc3s2)cc1`, the Potency was inconclusive: 50.1 µM [inhibitor, partial curve, poor fit]. `CSc1ccc2c(c1)[C@H](N1CCN(C)CC1)Cc1ccccc1S2` was tested, and the Potency was inconclusive: 50.1 µM [inhibitor, partial curve, poor fit]. `CCOc1cc(-c2nnc(SCC(=O)NCc3ccc(C)cc3)nc2-c2ccc(OC)c(OCC)c2)ccc1OC` was tested, and the Potency was “inactive”. `O=C1CCCC2=C1C(c1ccc(Br)cc1)n1nc(-c3ccco3)nc1N2` (configuration not stated) was tested, and the Potency was inconclusive: 50.1 µM [inhibitor, partial curve, poor fit]. With `COc1cccc(C(=O)N2CCC3(CC2)NC(=O)N(c2ccccc2)N3)c1` the Potency was active: 6.31 µM. For `CN(C)S(=O)(=O)c1cccc(NC(=O)CCSc2ccc(Cl)cc2)c1`, the Potency was “inactive”. `COc1ccc(OC)c(NC(=O)c2nc(SCc3ccccc3F)ncc2Cl)c1` was tested, and the Potency was “inactive”. With `CC(C)C[C@H]1CN([C@@H](Cc2ccccc2)CN2CCC[C@@H]2CN2C(=O)C(=O)NC[C@@H]2Cc2ccccc2)C(=O)C(=O)N1CC1CCCCC1` the Potency was inconclusive: 79.4 µM [inhibitor, partial curve, poor fit]. `CC1CCCN(C(=O)C2CCN(CCCc3ccccc3)CC2)C1` (configuration not stated) was tested, and the Potency was inconclusive: 0.316 µM [inhibitor, full curve, poor fit]. `CC(NC(=O)c1ccc(-c2ccccc2)cc1)c1ccccc1` (configuration not stated) was tested, and the Potency was inconclusive: 70.8 µM [inhibitor, single point]. In the case of `CC(C)=CCC1(CO)CCCN(Cc2cc(=O)n3cc(C)sc3n2)C1` (configuration not stated), the Potency is reported as inconclusive: 4.47 µM [inhibitor, full curve]. With `O=C(Cn1c(=O)oc2cc(S(=O)(=O)NCc3ccccc3)ccc21)N(CCO)Cc1ccccc1` the Potency was inconclusive: 178 µM [inhibitor, partial curve, poor fit]. With `CC1=C(C(=O)OCC2CCCO2)C(c2ccsc2)C2=C(CC(C)(C)CC2=O)N1` (configuration not stated) the Potency was inconclusive: 5.62 µM [inhibitor, partial curve, poor fit]. For `CC(=O)N(c1cccc(C(F)(F)F)c1)c1nc(CSc2nnc(C3CC3)n2C2CC2)cs1`, the Potency was “inactive”. In the case of `Cc1cc(C)nc(NS(=O)(=O)c2ccc(Br)s2)c1`, the Potency is reported as inconclusive: 44.7 µM [inhibitor, partial curve, poor fit]. With `O=C(Cc1ccc(Cl)cc1)Nc1ccc(S(=O)(=O)Nc2cnc3ccccc3n2)cc1` the Potency was inconclusive: 17.8 µM [inhibitor, partial curve, poor fit]. With `O=C(Nc1ccccc1)N1CCC(c2nn(-c3ccc(Cl)cc3)c(=O)[nH]2)CC1` the Potency was active: 31.6 µM. With `COc1ccc2nc(N3C(=O)C(O)=C(C(=O)c4ccco4)C3c3cccc(OC)c3OC)sc2c1` (configuration not stated) the Potency was inconclusive: 22.4 µM [inhibitor, partial curve, poor fit]. With `CCOc1ccccc1N1CCN(CC(=O)NC(=O)NCc2ccco2)CC1` the Potency was “inactive”. For `COC(=O)c1ccc(C)c(S(=O)(=O)NCc2ccc(N3CCCC3)nc2)c1`, the Potency was inconclusive: 39.8 µM [inhibitor, partial curve, poor fit]. For `O[C@@H]1CN(Cc2cccs2)[C@@H](c2ccc(Cl)cc2)C[C@H]1n1cc(-c2ccc(F)cc2)nn1`, the Potency was “inactive”. With `CC1CCN(C(=O)CSc2nncn2-c2ccccn2)CC1` the Potency was inconclusive: 3.16 µM [inhibitor, full curve, poor fit]. In the case of `COc1ccc(NC(=O)COc2ccccc2F)cc1S(=O)(=O)N1CCCCC1`, the Potency is reported as inconclusive: 56.2 µM [inhibitor, partial curve, poor fit]. In the case of `O=C(c1ccco1)N1CCN(C(=O)c2cc(-c3ccccn3)nc3ccc(Cl)cc23)CC1`, the Potency is reported as inconclusive: 12.6 µM [inhibitor, partial curve, poor fit]. For `Cc1nc2ccc(C(=O)NCCCN3CCCCC3)cc2nc1C`, the Potency was “inactive”. With `COc1ccc(N2Cc3c(ncnc3N3CCN(Cc4ccccc4)CC3)N(C)CC2=O)cc1` the Potency was inconclusive: 35.5 µM [inhibitor, full curve]. For `Cn1c(SCC(=O)N2CCN(Cc3ccccc3)CC2)nnc1-c1ccncc1`, the Potency was “inactive”. `O=S(=O)(c1ccccc1)c1nnn2c1nc(NC1CCN(Cc3ccccc3)CC1)c1ccccc12` was tested, and the Potency was “inactive”. With `Cc1ccc(C(=O)c2ccccc2C(=O)OCC(=O)Nc2ccc(SC(F)F)cc2)cc1` the Potency was “inactive”. `Cc1ccc(C)n1C1C(=O)N(Cc2ccc(C(C)C)cc2)c2ccc(F)cc21` (configuration not stated) was tested, and the Potency was active: 35.5 µM. `O=C(Cc1cccc(NC(=O)C2CCCN(C(=O)C3CCCCC3)C2)c1)Nc1cccc(C(=O)N2CCCCC2)c1` (configuration not stated) was tested, and the Potency was inconclusive: 15.8 µM [inhibitor, partial curve].
